According to PubChem BioAssay AID2685 (National Center for Advancing Translational Sciences (NCATS), 2010):
Screen size: about 320,000 compounds; about 2,100 (0.66%) were called active. The shares of active, inactive and inconclusive entries below differ from those in the screen. The call rests on the fitted dose curve; in most records, active means well fitted inhibition curve with a large enough effect in the signal ratio, with a control signal flat (not every such curve was filed as active); inconclusive means small, poorly fitted or top-dose-only effect, or effect the other way, or a change in a side signal; inactive means flat fitted curve, though single readings scatter; the % refers to the signal ratio. A potency beside an inconclusive call is a rough fit, not a confirmed value.

test: qHTS Assay for Lipid Storage Modulators in Drosophila S3 Cells; conditions: BODIPY lipid droplet fluorescence, 18-24 h, cells fed with added oleic acid; lipid storage change, negative = inhibition: at 46.1 µM (top of the series) unless noted
Outline: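 Drosophila S3 cells loaded with oleic acid (400 uM, as added) and compounds at several concentrations; lipid droplets imaged by 488-nm laser-scanning cytometry, 500–530 nm intensity and object ratio to cell channel. Percent activity normalized to 20 uM Triacsin C.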
On the % scale 0 is the no-effect control and ±100 the full control effect; potency means the concentration at half of the fitted maximal effect.

| Structure (SMILES) | lipid storage change, negative = inhibition | Potency |
| --- | --- | --- |
| COc1cc(OC)cc(-c2c(-c3cccs3)c3cc(-c4ccc(OC)c(OC)c4)ccc3n2C)c1 | inconclusive: 15.7% |  |
| COc1ccc(NC(=O)c2ccc3c(c2)NC(=O)CS3)cc1S(=O)(=O)Nc1ccc(Br)cc1 | inconclusive: 21.1% |  |
| O=c1c(-c2ccccc2)c[nH]n1-c1cccc([N+](=O)[O-])c1 | inconclusive: 13.8% |  |
| COC(=O)/C(=C\Nc1ccc(Cl)cc1Cl)NC(=O)c1ccccc1 |  | inconclusive: 18.4 µM [activator, partial curve] |
| O=C(/C=C/c1ccccc1)NC1CCCc2ccccc21 (stereo unspecified) | inconclusive: 5.21% |  |
| Cc1ccc(C)c(NC(=O)CSc2nc(C)cs2)c1 | inconclusive: 9.07% |  |
| O=C1N[C@H](Cc2ccccc2)CO1 | inconclusive: 9.13% |  |
| Cc1cccc(N2CCN(S(=O)(=O)c3ccc4c(c3)NC(=O)CS4)CC2)c1C | inconclusive: -28.5% |  |
| Cc1cccc(C(=O)n2cnnc2N)c1 | inconclusive: -35.8% [at 0.369 µM] |  |
| COc1ccc(N2CCN(C3CC(=O)NC3=O)CC2)cc1 (stereo unspecified) |  | inconclusive: 0.146 µM [falling, full curve, poor fit] |
| CCOc1ccc(NC2=CC(=O)CCC2)cc1 | inconclusive: 9.8% |  |
| CCOc1ccc(N2CCCCn3c2nc2c3c(=O)[nH]c(=O)n2C)cc1 | inconclusive: 9.67% |  |
| O=C1C(=O)N(O)C2CCCCC2N1O (stereo unspecified) | inconclusive: -9.18% |  |
| CCOC(=O)C1CCCN(C(=O)c2ccc3oc(CCc4ccccc4)nc3c2)C1 (stereo unspecified) |  | inconclusive: 29.1 µM [falling, single point] |
| COc1cc(Cl)c(S(=O)(=O)N2CCN(Cc3ccc4c(c3)OCO4)CC2)cc1Cl | inconclusive: 33.8% |  |
| COc1ccc(/C=C(\C#N)C(=O)OC2CCOC2=O)cc1 (stereo unspecified) |  | inconclusive: 0.0517 µM [falling, partial curve, poor fit] |
| O=C(Nc1ccc(F)cc1)C1CCCN(S(=O)(=O)c2ccc3[nH]c(=O)ccc3c2)C1 (stereo unspecified) | inactive |  |
| O=C(CO/N=C/c1ccc(OC(F)F)cc1)NC1CCCCCC1 |  | inconclusive: 0.58 µM [rising, single point] |
| O=C(N/C(=C\c1ccc([N+](=O)[O-])cc1)C(=O)N1CCCCC1)c1ccco1 | inconclusive: -32.1% |  |
| O=S1(=O)CC(O)C(N(CCO)C(=S)Nc2ccccc2)C1 (stereo unspecified) |  | inconclusive: 0.103 µM [activator, full curve, poor fit] |
| CCCn1c(N)c(C(=O)CN2CCc3ccccc3C2)c(=O)n(C)c1=O | inconclusive: 4.69% |  |
| O=C(CCN1C(=O)C2C3C=CC(C3)C2C1=O)Nc1ccccc1F (stereo unspecified) | inconclusive: 2.79% |  |
| O=C1C=C(NC2CCCCC2)CCC1 | inconclusive: 8.81% |  |
| Cc1ccc(C)c(-c2ccc(=O)n(Cc3c(F)cccc3Cl)n2)c1 | inconclusive: -0.105% |  |
| COc1ccc(N2CCN(C(=O)CCN3C(=S)NC(C)(C)CC3C)CC2)cc1 (stereo unspecified) | inconclusive: -11.1% |  |
| CC1CCCC(NC(=O)C2c3ccccc3C(=O)N2Cc2cccs2)C1C (stereo unspecified) |  | inconclusive: 23.1 µM [falling, single point] |

A different layout for four compounds above:
COC(=O)/C(=C\Nc1ccc(Cl)cc1Cl)NC(=O)c1ccccc1
  Potency: inconclusive: 18.4 µM [activator, partial curve]
O=C(/C=C/c1ccccc1)NC1CCCc2ccccc21 (stereo unspecified)
  lipid storage change, negative = inhibition: inconclusive: 5.21%
Cc1cccc(C(=O)n2cnnc2N)c1
  lipid storage change, negative = inhibition: inconclusive: -35.8% [at 0.369 µM]
O=C(CO/N=C/c1ccc(OC(F)F)cc1)NC1CCCCCC1
  Potency: inconclusive: 0.58 µM [rising, single point]

Later entries

| Structure (SMILES) | lipid storage change, negative = inhibition | Potency |
| --- | --- | --- |
| O=C(COc1ccc(/C=N/NC(=O)c2ccncc2)cc1)Nc1cccc([N+](=O)[O-])c1 | inconclusive: 249% |  |
| COC(=O)c1ccc(C2C(C(C)=O)=C(C)Nc3ncnn32)cc1 (stereo unspecified) | inconclusive: 7.73% [at 9.22 µM] |  |
| Cc1nc([N+](=O)[O-])c(Sc2nc3ccccc3[nH]2)n1Cc1ccccc1 |  | inconclusive: 18.4 µM [falling, single point] |
| O=C(N/N=C/c1ccccc1O)C(=O)Nc1ccccn1 | inconclusive: -4.16% |  |
| CC1=NN(C(N)=S)C(=O)C1N=Nc1cccc2ccccc12 (stereo unspecified) |  | inconclusive: 11.6 µM [falling, partial curve, poor fit] |
| O=C(Nc1cc2c3c(c1)CC(=O)N3CCC2)C1CC1 | inconclusive: 50.4% |  |
| COc1ccc(C(CNC(=O)CN2C(=O)NC3(CCCC3)C2=O)N(C)C)cc1 (stereo unspecified) |  | inconclusive: 29.1 µM [activator, single point] |
| CCS(=O)(=O)c1nc(S(=O)(=O)c2ccc(C)cc2)c(N2CCC3(CC2)OCCO3)s1 |  | inconclusive: 1.16 µM [activator, full curve] |
| COc1cc(SC)ccc1C(=O)NCCc1ccccc1 |  | inconclusive: 8.2 µM [activator, partial curve] |
| COc1cc(N=c2ssnc2Cl)cc(OC)c1OC |  | inconclusive: 29.1 µM [falling, single point] |
| Cn1c(N)c(C(=O)COC(=O)[C@H](Cc2ccccc2)N2C(=O)c3ccccc3C2=O)c(=O)n(C)c1=O | inconclusive: 6.25% |  |
| S=C(NCC1CCCO1)n1nnc2ccccc21 (stereo unspecified) | inconclusive: 22% |  |
| Cc1c(/C=C(\C#N)c2nn(-c3ccccc3)c(N)c2C#N)c2ccccc2n1Cc1ccc(F)cc1 | inconclusive: 164% |  |
| COc1cc2[nH]c(=O)n(CCC(=O)N3CCN(c4cccc(C)c4C)CC3)c(=O)c2cc1OC | inconclusive: 17.6% |  |
| O=C(CCc1nc2ccccc2c(=O)[nH]1)NCCN1C(=O)S/C(=C\c2ccc(Cl)cc2Cl)C1=O | inactive |  |
| Cc1ccccc1NC(=S)NC(NC(=O)C(C)(C)C)C(Cl)(Cl)Cl (stereo unspecified) |  | inconclusive: 0.731 µM [falling, full curve, poor fit] |
| CC(C)CC(NC(N)=O)C(=O)Nc1ccc2c(c1)OCO2 (stereo unspecified) | inconclusive: 53.7% |  |
| Nc1nc(C(=O)N2CCOCC2)nn1S(=O)(=O)c1ccccc1 |  | inconclusive: 0.103 µM [falling, full curve, poor fit] |
| CC(=O)CCC1C2C(O)C(C(C)C)C(OC(=O)/C=C/c3ccccc3)CC12C (stereo unspecified) | inconclusive: 13.5% |  |
| Cc1ccc(-n2ncc3c(NCc4ccccc4)ncnc32)cc1 | inconclusive: 8.96% |  |
| COc1ccc(C(=O)CC(=O)c2ccccc2O)cc1OC | inconclusive: 6.98% |  |
| C/C(=N/NC(=O)c1cn(-c2cccc(C)n2)cn1)c1ccc(C)cc1 | inconclusive: 9.27% |  |
| O=C(NCCSc1ccccc1)c1cccnc1 | inconclusive: 20.7% |  |
| O=C(COC(=O)c1ccco1)NCc1ccc(Cl)cc1 | inconclusive: -25.7% |  |
| COC(=O)c1ccc2nc(-c3ccc(S(C)(=O)=O)cc3)cn2c1 | inconclusive: 3.13% |  |
| NC(=O)CCC(=O)N1CCCC(C(=O)c2ccc3c4c(cccc24)CC3)C1 (stereo unspecified) | inactive |  |

| Structure (SMILES) | lipid storage change, negative = inhibition | Potency |
| --- | --- | --- |
| CC(C)(C)NC(=O)COC(=O)c1ccccc1Nc1ccc(SC(F)F)cc1 | inconclusive: -43.9% |  |
| S=C1NC2CCCCC2N1 (stereo unspecified) |  | inconclusive: 29.1 µM [cytotoxic, single point] |
| Cc1ccccc1NC(=O)C1CC(Cl)=CCC1C(=O)O (stereo unspecified) |  | inconclusive: 4.61 µM [activator, full curve] |
| Cc1ccc(S(=O)(=O)N/N=C\c2ccc3c(c2)OCO3)cc1C | inconclusive: 112% |  |
| Cn1nc(-c2ccccc2F)c2cc(C(=O)Nc3ccc4c(c3)OCCO4)sc21 |  | inconclusive: 16.4 µM [activator, single point] |
| COCCNc1nc(N)c([N+](=O)[O-])c(NCc2ccccc2)n1 |  | inconclusive: 29.1 µM [rising, single point] |
| COc1cc(CNC2CCCCC2OC)cc(OC)c1 (stereo unspecified) | inconclusive: 1.56% |  |
| Clc1ccc(OCCCCCN2CCOCC2)cc1 |  | inconclusive: 4.61 µM [falling, single point] |
| O=C(CN(C(=O)CNS(=O)(=O)c1ccc(F)cc1)c1ccccc1)NCc1ccco1 | inconclusive: 1.16% |  |
| Cc1cc(C)cc(OCc2nnc(SCC(=O)c3ccc(Br)cc3)o2)c1 |  | inconclusive: 18.4 µM [activator, partial curve] |
| CCOc1ccc(-c2nc(N)ncc2Oc2cccc(OC)c2)c(O)c1 |  | inconclusive: 1.64 µM [activator, partial curve] |
| CC1=NOC2(C1)/C(=N/O)CCC/C2=N\O (stereo unspecified) |  | inconclusive: 29.1 µM [falling, partial curve, poor fit] |
| O=C(O)c1ccc(N2C(=O)CC(SC(=NCc3ccc4c(c3)OCO4)Nc3ccccc3)C2=O)cc1 (stereo unspecified) | inconclusive: 16.3% |  |
| Cc1c(C(=O)OCC(=O)N2CC(C)OC(C)C2)oc2ccc(Br)cc12 (stereo unspecified) | inconclusive: -18.4% |  |
| Cc1occc1C(=O)NCc1ccc2c(c1)OCO2 |  | inconclusive: 2.06 µM [activator, full curve] |
| O=C(O)CC(c1cccc(C(F)(F)F)c1)N1CCS(=O)(=O)CC1 (stereo unspecified) | inconclusive: 13.2% [at 9.22 µM] |  |
| Cc1ccc(C)c(-c2nnc(NC(=O)Cc3ccccc3)o2)c1 |  | inconclusive: 29.1 µM [activator, partial curve] |
| COC(=O)c1sc(N2C(=O)C(O)=C(C(=O)c3ccc(C)o3)C2c2ccc(OC)c(OC)c2)nc1C (stereo unspecified) |  | inconclusive: 0.92 µM [falling, partial curve, poor fit] |
| COc1ccc(C(C)=O)cc1CC(=O)Nc1ccc2c(c1)CCC2 | inconclusive: 120% |  |
| COc1cccc(-c2nnc3sc(-c4cccs4)nn23)c1 |  | inconclusive: 9.2 µM [activator, single point] |
| CCC(C)NS(=O)(=O)c1ccc(NC(=O)c2ccc([N+](=O)[O-])cc2Cl)cc1 (stereo unspecified) | inconclusive: -27.2% |  |
| Cc1ccc(NC(=O)C2CCN(C(=O)c3cccs3)CC2)c(C)c1 | inconclusive: 334% |  |
| COc1cc(C(=O)NCCCc2ccccc2)cc(OC)c1OC | inconclusive: -22.7% |  |
| O=C(c1cccc(S(=O)(=O)N2CCCC2)c1)N1CCOCC1 |  | inconclusive: 6.51 µM [falling, single point] |
